This note sets out measurements from patent US20030180888A1.

By UniProt entry, the sequences of proteins in these tests, tags left out. Where a name states a change or a piece, a line headed by the entry shows the natural chain unless it says otherwise.
UniProt P04386: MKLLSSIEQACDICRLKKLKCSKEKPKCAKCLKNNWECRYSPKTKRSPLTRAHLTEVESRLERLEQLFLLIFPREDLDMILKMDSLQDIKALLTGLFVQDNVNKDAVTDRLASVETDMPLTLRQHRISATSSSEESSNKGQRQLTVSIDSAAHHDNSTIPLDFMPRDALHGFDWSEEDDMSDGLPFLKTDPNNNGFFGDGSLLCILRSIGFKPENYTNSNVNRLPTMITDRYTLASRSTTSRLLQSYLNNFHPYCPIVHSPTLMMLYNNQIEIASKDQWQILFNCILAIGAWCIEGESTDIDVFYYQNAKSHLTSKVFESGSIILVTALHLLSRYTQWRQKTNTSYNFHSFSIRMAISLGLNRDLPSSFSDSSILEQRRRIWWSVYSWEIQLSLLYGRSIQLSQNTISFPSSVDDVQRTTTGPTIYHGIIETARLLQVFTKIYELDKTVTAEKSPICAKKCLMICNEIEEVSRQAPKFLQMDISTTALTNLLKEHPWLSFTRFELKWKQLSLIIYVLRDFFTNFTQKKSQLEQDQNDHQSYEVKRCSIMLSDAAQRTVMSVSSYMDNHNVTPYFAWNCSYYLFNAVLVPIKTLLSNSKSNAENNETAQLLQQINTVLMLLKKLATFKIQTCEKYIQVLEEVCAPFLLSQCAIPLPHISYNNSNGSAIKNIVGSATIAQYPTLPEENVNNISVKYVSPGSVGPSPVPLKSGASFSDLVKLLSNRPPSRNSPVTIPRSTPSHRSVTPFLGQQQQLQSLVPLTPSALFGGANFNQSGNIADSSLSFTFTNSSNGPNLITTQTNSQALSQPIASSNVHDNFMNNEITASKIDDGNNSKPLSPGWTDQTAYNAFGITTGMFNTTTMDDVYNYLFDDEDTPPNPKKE

Results are given in words; binding and its absence hold for the method and conditions named. Some entries that bind do so weakly or less than the wild type. Tags and fused reporters may be left off the sequences shown.

The target in this experiment is T1, Gal-4 activation domain-CD150 fusion construct (SLAM), without c-fyn (UniProt Q13291).
T1 sequence (looked up): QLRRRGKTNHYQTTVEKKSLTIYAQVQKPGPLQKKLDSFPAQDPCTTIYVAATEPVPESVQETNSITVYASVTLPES
Briefly: classical yeast two-hybrid, beta-galactosidase reporter, no c-fyn.

As to “Gal-4 binding domain-SAP fusion (human SLAM associated protein, SAP) (from UniProt P04386 1-147; O60880 1-128)”, the binding result is reported as “binds”.
